Literature values in patent publication US20010003848A1, “DNA SEQUENCES FOR AMMONIUM TRANSPORTER, PLASMIDS, BACTERIA, YEASTS, PLANT CELLS AND PLANTS CONTAINING THE TRANSPORTER” (priority 1993, published 2001).
Some results were stated once for a whole list of compounds, not compound by compound.

Tested on: Saccharomyces cerevisiae
Settings: glutamine or asparagine in the surrounding medium; cited from earlier work

Row | SMILES | ammonium uptake is reduced by
1 | NC(=O)C[C@H](N)C(=O)O [asparagine] | 60 to 70%
2 | NC(=O)CC[C@H](N)C(=O)O [glutamine] | 60 to 70%
